The subject of this series is HLA molecules of primary tumor samples. The series can be described thus: Identification of tumor associated peptides presented on the cell surface (HLA immune precipitation, LC-MS). On the set-up: species or system human. Particulars: for Peptide Presentation on cancer entities: entities on which the peptide was presented, CLL = chronic lymphocytic leukemia, AML = acute myeloid leukemia, CML = Chronic myeloid leukemia; for Peptide Presentation on tumor types: tumor entities on which the peptide was found presented (Table 8b).

Take “149 (SEKETVAYF; listed as Homo sapiens) [compound 149]”: the “Peptide Presentation on cancer entities” value is listed as “CLL” and the “Peptide Presentation on tumor types” value is listed as “MEL, NHL”.

As to “150 (EEVTDRSQL; listed as Homo sapiens) [compound 150]”, the “Peptide Presentation on cancer entities” value was “CLL” and the “Peptide Presentation on tumor types” value is reported as “GBC, GC, NHL, NSCLCadeno, NSCLCother, NSCLCsquam, OC”. In the case of “151 (EVDASIFKAW; listed as Homo sapiens) [compound 151]”, the “Peptide Presentation on cancer entities” value is “CLL” and the “Peptide Presentation on tumor types” value is “BRCA, CCC, GBC, GBM, HCC, HNSCC, NHL, NSCLCsquam, OC, OSCAR, PACA, PRCA, SCLC, UBC, UEC”. As to “152 (AELLAKELY; listed as Homo sapiens) [compound 152]”, the “Peptide Presentation on cancer entities” value is on record as “CLL” and the “Peptide Presentation on tumor types” value is on record as “CCC, CRC, NHL, NSCLCsquam, UEC”. On to “153 (KEFEQVPGHL; listed as Homo sapiens) [compound 153]”, for which the “Peptide Presentation on cancer entities” value is given as “CLL”. Consider “154 (AEPGPVITW; listed as Homo sapiens) [compound 154]”, for which the “Peptide Presentation on cancer entities” value is recorded as “CLL” and the “Peptide Presentation on tumor types” value is “NHL”.

As to “155 (NEFPVIVRL; listed as Homo sapiens) [compound 155]”, the “Peptide Presentation on cancer entities” value is “CLL” and the “Peptide Presentation on tumor types” value is on record as “BRCA, CRC, GBC, GBM, GC, HNSCC, MEL, NHL, NSCLCadeno, NSCLCother, NSCLCsquam, OC, OSCAR, PACA, PRCA, RCC, SCLC, UBC, UEC”. For “156 (FEVESLFQKY; listed as Homo sapiens) [compound 156]”, the “Peptide Presentation on cancer entities” value is “CLL” and the “Peptide Presentation on tumor types” value is on record as “BRCA, CRC, GBC, GC, GEJC, HCC, HNSCC, MEL, NHL, NSCLCadeno, NSCLCsquam, OC, OSCAR, PACA, PRCA, RCC, SCLC, UEC”. Take “157 (VEIAEAIQL; listed as Homo sapiens) [compound 157]”: the “Peptide Presentation on cancer entities” value was “CLL” and the “Peptide Presentation on tumor types” value was “CCC, CRC, HNSCC, NSCLCadeno, NSCLCother, NSCLCsquam, OC”. As for “158 (GENEDNRIGL; listed as Homo sapiens) [compound 158]”, the “Peptide Presentation on cancer entities” value is “CLL”. For “159 (GELLGRQSF; listed as Homo sapiens) [compound 159]”, the “Peptide Presentation on cancer entities” value is listed as “CLL” and the “Peptide Presentation on tumor types” value is reported as “BRCA, CCC, CRC, MEL, NHL, NSCLCadeno, OC, PACA, RCC, UEC”. As for “160 (EEETILHFF; listed as Homo sapiens) [compound 160]”, the “Peptide Presentation on cancer entities” value was “CLL” and the “Peptide Presentation on tumor types” value is “NHL”. Take “161 (EEGDTLLHLF; listed as Homo sapiens) [compound 161]”: the “Peptide Presentation on cancer entities” value is listed as “CLL” and the “Peptide Presentation on tumor types” value was “CRC, HNSCC, NHL, NSCLCsquam, OSCAR, PACA, UBC, UEC”. Consider “162 (DEAQARAAF; listed as Homo sapiens) [compound 162]”, for which the “Peptide Presentation on cancer entities” value was “AML”.

On to “163 (EEWMGLLEY; listed as Homo sapiens) [compound 163]”, for which the “Peptide Presentation on cancer entities” value is “AML”. For the substance “164 (SEYSHLTRV; listed as Homo sapiens) [compound 164]”, the “Peptide Presentation on cancer entities” value is reported as “AML” and the “Peptide Presentation on tumor types” value is recorded as “RCC”. “165 (VELDLQRSV; listed as Homo sapiens) [compound 165]”: the “Peptide Presentation on cancer entities” value was “AML”. In the case of “166 (NEVLASKY; listed as Homo sapiens) [compound 166]”, the “Peptide Presentation on cancer entities” value is reported as “CLL” and the “Peptide Presentation on tumor types” value is given as “BRCA, CCC, CRC, GBC, GC, HCC, NHL, NSCLCadeno, NSCLCsquam, OC, OSCAR, PRCA, SCLC, UBC, UEC”.

For the substance “167 (KEIGAAVQAL; listed as Homo sapiens) [compound 167]”, the “Peptide Presentation on cancer entities” value is given as “CLL” and the “Peptide Presentation on tumor types” value is listed as “NSCLCadeno, NSCLCother, OC”. On to “168 (QEIQSLLTNW; listed as Homo sapiens) [compound 168]”, for which the “Peptide Presentation on cancer entities” value is “CLL” and the “Peptide Presentation on tumor types” value was “CCC, CRC, GBM, HCC, HNSCC, MEL, NHL, NSCLCadeno, NSCLCsquam, OSCAR, PACA, RCC, SCLC, UEC”. As for “169 (EENGEVKEL; listed as Homo sapiens) [compound 169]”, the “Peptide Presentation on cancer entities” value is reported as “CLL” and the “Peptide Presentation on tumor types” value is “NHL”.

On to “170 (SENEQRRMF; listed as Homo sapiens) [compound 170]”, for which the “Peptide Presentation on cancer entities” value was “CLL”. As to “171 (SEDLAVHLY; listed as Homo sapiens) [compound 171]”, the “Peptide Presentation on cancer entities” value was “CLL” and the “Peptide Presentation on tumor types” value is recorded as “BRCA, CRC, GC, HCC, HNSCC, NHL, OSCAR, PACA, PRCA, UBC”. With “172 (VEDGLFHEF; listed as Homo sapiens) [compound 172]”, the “Peptide Presentation on cancer entities” value is recorded as “CLL” and the “Peptide Presentation on tumor types” value is “BRCA, CRC, GC, HCC, HNSCC, MEL, NHL, NSCLCadeno, NSCLCsquam, OC, OSCAR, PACA, PRCA, RCC, UBC, UEC”. As for “173 (KEYDFGTQL; listed as Homo sapiens) [compound 173]”, the “Peptide Presentation on cancer entities” value is on record as “AML”.

Consider “174 (TDKSFPNAY; listed as Homo sapiens) [compound 174]”, for which the “Peptide Presentation on cancer entities” value is reported as “CLL” and the “Peptide Presentation on tumor types” value was “PRCA, SCLC”. “175 (HEIDGKALFL; listed as Homo sapiens) [compound 175]”: the “Peptide Presentation on cancer entities” value is recorded as “AML”. Turning to “176 (AENAVSNLSF; listed as Homo sapiens) [compound 176]”, the “Peptide Presentation on cancer entities” value is recorded as “CLL” and the “Peptide Presentation on tumor types” value is listed as “NHL”. Consider “177 (QENMQIQSF; listed as Homo sapiens) [compound 177]”, for which the “Peptide Presentation on cancer entities” value is recorded as “CLL” and the “Peptide Presentation on tumor types” value was “BRCA, CCC, CRC, GC, HCC, HNSCC, MEL, NHL, NSCLCadeno, NSCLCsquam, OC, OSCAR, PACA, SCLC, UBC, UEC”.

As to “178 (REYEHYWTEL; listed as Homo sapiens) [compound 178]”, the “Peptide Presentation on cancer entities” value is recorded as “CLL” and the “Peptide Presentation on tumor types” value is given as “MEL, NHL, NSCLCadeno, NSCLCother, OSCAR”. For “179 (AEIKQTEEKY; listed as Homo sapiens) [compound 179]” the same measures were “AML” and “HCC”. Regarding “180 (EEPAFNVSY; listed as Homo sapiens) [compound 180]”, the “Peptide Presentation on cancer entities” value is recorded as “CLL” and the “Peptide Presentation on tumor types” value is “BRCA, CCC, GBC, NHL, NSCLCadeno, OC, OSCAR”. “181 (GEIKEPLEI; listed as Homo sapiens) [compound 181]”: the “Peptide Presentation on cancer entities” value is given as “CLL” and the “Peptide Presentation on tumor types” value is “BRCA, CCC, CRC, GBC, GC, HCC, HNSCC, MEL, NHL, NSCLCadeno, NSCLCother, NSCLCsquam, OC, OSCAR, PACA, RCC, UEC”. Consider “182 (AQNLSIIQY; listed as Homo sapiens) [compound 182]”, for which the “Peptide Presentation on cancer entities” value is reported as “CLL” and the “Peptide Presentation on tumor types” value is “BRCA, GBC, GC, HCC, MEL, NHL, NSCLCadeno, NSCLCother, NSCLCsquam, OSCAR, PRCA”. For “183 (GESQDSTTAL; listed as Homo sapiens) [compound 183]”, the “Peptide Presentation on cancer entities” value was “CLL” and the “Peptide Presentation on tumor types” value is “CCC, HNSCC, NHL, NSCLCadeno, NSCLCother, NSCLCsquam, OC”.

(Values after patent US11135246B2, “Peptides and combination of peptides for use in immunotherapy against leukemias and other cancers” (Immatics Biotechnologies GmbH, priority 2017, dated 2021).)
